Data source: PubChem BioAssay AID1259308 (NCATS, 2017)
Aim: 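Genes whose loss raises luciferase production in HEK293 cells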 (primary screen). Cell system: human HEK293 embryonic kidney cells stably expressing firefly luciferase (HEK-CMV-Luc2-Hygro). Reagent: single siRNA against human genes, 0.8 pmol siRNA per well. Duration: 72 h. Measurement: 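Luciferase light (ONE-Glo) measured on one replicate plate set and viability (CellTiter-Glo) on the other, scaled to a negative control siRNA, with robust z-scores and luciferase per cell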. Direction: total luciferase, z-score: higher = more reporter protein produced. Call rule: 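Active when the median/MAD z-score for overall luciferase is greater than 3; a gene was taken forward for validation with new siRNAs if at least two of its three siRNAs passed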. Meaning of the calls: active = raised luciferase; inactive = no rise.
Here is a random part of about 59,000 reagents. Over the whole deposit, about 1,510 (2.6%) got an active call. 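Calls use total luciferase alone and ignore viability, so some active siRNAs may act by altering cell number.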 Reagents against one gene are numbered here. Not all columns of the deposit are shown. Reagent sequences are not shown.

Knock-down of RBP1 #1 came out at: total luciferase, z-score -1.8; inactive.
For RBP1 #2, the entry reads total luciferase, z-score 0.593; inactive.
Knock-down of RBP1 #3 gave: total luciferase, z-score -0.351; inactive.
MSTN #1 scored total luciferase, z-score 0.527; inactive.
MSTN #2 gave total luciferase, z-score -0.443; inactive.
After knock-down of MSTN #3, the record shows total luciferase, z-score 3.93; active.
Against SLC12A1 #1, the values are total luciferase, z-score -0.741; inactive.
Knock-down of SLC12A1 #2 resulted in: total luciferase, z-score -0.917; inactive.
SLC12A1 #3 scored total luciferase, z-score -0.816; inactive.
Against HNRNPA1P4 #1 the deposit lists total luciferase, z-score -1.13; inactive.
Depletion of HNRNPA1P4 #2 resulted in: total luciferase, z-score -0.879; inactive.
With knock-down of HNRNPA1P4 #3, the record shows total luciferase, z-score -0.199; inactive.
After knock-down of PHYHD1 #1, the record shows total luciferase, z-score -0.0045; inactive.
Depletion of PHYHD1 #2 came out at: total luciferase, z-score -0.248; inactive.
PHYHD1 #3 scored total luciferase, z-score 1.28; inactive.
With knock-down of YJU2 #1, the screen gave total luciferase, z-score 0.447; inactive.
YJU2 #2 gave total luciferase, z-score 1.24; inactive.
YJU2 #3 gave total luciferase, z-score 0.494; inactive.

Entries above whose target name begins with S or s:
SLC12A1 #1 | total luciferase, z-score = -0.741; Outcome = inactive
SLC12A1 #2 | total luciferase, z-score = -0.917; Outcome = inactive
SLC12A1 #3 | total luciferase, z-score = -0.816; Outcome = inactive

The list goes on:
After knock-down of GPR157 #1, the record shows total luciferase, z-score 0.807; inactive.
Knock-down of GPR157 #2 resulted in: total luciferase, z-score 1.12; inactive.
GPR157 #3 showed total luciferase, z-score 0.102; inactive.
With knock-down of SUPT6H #1, the screen gave total luciferase, z-score 1.53; inactive.
Against SUPT6H #2, the entry reads total luciferase, z-score 1.89; inactive.
Depletion of SUPT6H #3 resulted in: total luciferase, z-score 1.41; inactive.
DIABLO #1 gave total luciferase, z-score -0.00454; inactive.
DIABLO #2 scored total luciferase, z-score -0.186; inactive.
For DIABLO #3, the values are total luciferase, z-score 0.575; inactive.
For BECN2 #1, the entry reads total luciferase, z-score 0.254; inactive.
Knock-down of BECN2 #2 gave: total luciferase, z-score -0.887; inactive.
Silencing of BECN2 #3 came out at: total luciferase, z-score 0.531; inactive.
ARK2N #1 showed total luciferase, z-score -1.15; inactive.
Against ARK2N #2 the deposit lists total luciferase, z-score -0.165; inactive.
ARK2N #3 scored total luciferase, z-score 1.25; inactive.
ITGA8 #1 scored total luciferase, z-score 0.518; inactive.
Against ITGA8 #2, the values are total luciferase, z-score -0.0274; inactive.
With knock-down of ITGA8 #3 the results were total luciferase, z-score 0.606; inactive.
For LINC01521 #1, the values are total luciferase, z-score 0.31; inactive.
Knock-down of LINC01521 #2 gave: total luciferase, z-score 0.308; inactive.
After knock-down of LINC01521 #3, the record shows total luciferase, z-score -0.153; inactive.
Against WDR81 #1, the entry reads total luciferase, z-score 0.595; inactive.
For WDR81 #2, the values are total luciferase, z-score 0.592; inactive.
WDR81 #3 showed total luciferase, z-score 1.2; inactive.
